Results: patent US11690935B2, “Thermosensitive peptide hydrogel” (NATIONAL CHIAO TUNG UNIVERSITY, priority 2020, dated 2023)
Not every detail of the peptide structures is certain; ends, links or a residue may be inferred.

Tests used:
Format in all cases: physicochemical
TEM morphology of fibers = details: pH 7.0; for Diameter of fiber: Table 5
[1] = Rheological tests (storage modulus G′, loss modulus G″); details: no matter at 25° C. or 60° C., pH 7
[2] = Hydrogel degradation in PBS at 37° C.; details: PBS pH 7.4, 37° C.
Procedure: Hydrogel degradation was performed in a phosphate buffered solution (PBS) at 37° C. with 5% of CO2. In a 4 mL glass bottle, various 0.3 mL hydrogels were prepared, and 3 mL PBS was added to each of the glass bottles having the hydrogel. At some specific data points, the PBS was removed. The hydrogel was freeze-dried by the freeze-drying method, and the hydrogel degradation rate was calculated according to the following Formula (1),
[formula] wherein W (%) represented the hydrogel degradation rate, Wi represented the initial weight of the hydrogel at day 0, and Wd represented the dry weight of the hydrogel at day of a specific number. Cell Viability Test
In some embodiments of the invention, accordingly, with the remaining conditions the same, the stability of the thermosensitive hydrogel was tested by immersing the samples into a PBS with the pH value of 7.4 at 37° C., and the result thereof was shown in FIG. 10. FIG. 10 was a diagram showing specific degradation percentage over time of the 5F-FF, 5F-FF/PEG300, 5F-FF/PEG600, 5F-FF/PEG1000, 5F-FF/PEG1500, 5F-FF/PEG2000, and 5F-FF/PEG3000 alone in the PBS according to some embodiments of the invention.

Compound | Diameter of fiber (TEM morphology of fibers) | Loss modulus G″ [1] | Storage modulus G′ [1] | Time until completely dissolved [2] | Morphology image of the TEM (TEM morphology of fibers; Table 4, 5F-FF with PEG of different molecular weights)
O=C(Cc1ccc(F)cc1)N[C@@H](Cc1ccccc1)C(=O)N[C@@H](Cc1ccccc1)C(=O)O [Sample 1F-FF] | 10 ± 5 nm |  |  |  | 
O=C(Cc1c(F)cc(F)cc1F)N[C@@H](Cc1ccccc1)C(=O)N[C@@H](Cc1ccccc1)C(=O)O [Sample 3F-FF] | 11 ± 5 nm | 2.24×10^1 Pa | 2.23×10^2 Pa |  | 
O=C(Cc1c(F)c(F)c(F)c(F)c1F)N[C@@H](Cc1ccccc1)C(=O)N[C@@H](Cc1ccccc1)C(=O)O [Sample 5F-FF, 2,3,4,5,6-fluorobenzyl-diphenylalanine] |  |  |  | ≤ 14 days | Single fiber, length ±15 nm
